{"source": "patent US20070172525A1", "about": "“Anti-diabetic combinations” (priority 2007, published 2007)", "origin": "cited, not measured here", "tested_on": "patients with T2DM", "details": "24 weeks; sitagliptin 100 mg daily plus pioglitazone versus pioglitazone alone", "note": "At least one compound was matched to its structure with a doubt left.", "data": [{"compound": "CCc1ccc(CCOc2ccc(CC3SC(=O)NC3=O)cc2)nc1", "note": "(stereo not shown) [pioglitazone]", "values": [{"measurement": "Patients achieved a HbA1C of <7%", "result": 23, "unit": "%"}]}]}
